{"source": "PubChem BioAssay AID1159584 (Peter MacCallum Cancer Centre, 2016)", "test": "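Knock-downs that harm CDH1-null cells more than parental MCF10A cells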 (primary screen)", "system": "human MCF10A breast epithelial cells, parental and CDH1-null", "knock-down reagent": "siRNA against human genes", "measurement": "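Cell viability by CellTiter-Glo ATP luminescence, each line scaled to the mean of mock wells across plates, then CDH1-null over parental ratio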", "scale": "CDH1-null / parental viability ratio: higher = CDH1-null cells survive relatively better than parental; CDH1-null viability vs mock: higher = more viable CDH1-null cells", "units": "CDH1-null viability vs mock in fraction of mock", "note": "Here is an unselected part of about 18,000 reagents tested. Not all columns of the deposit are shown. Not given: the amount of reagent, the time to read-out."}
{"target":"CBS","CDH1-null / parental viability ratio":1.09,"CDH1-null viability vs mock":1.01}
{"target":"OR2M7","CDH1-null / parental viability ratio":0.88,"CDH1-null viability vs mock":0.56}
{"target":"NCCRP1","CDH1-null / parental viability ratio":0.98,"CDH1-null viability vs mock":0.6}
{"target":"MED27","CDH1-null / parental viability ratio":0.92,"CDH1-null viability vs mock":0.88}
{"target":"CPXCR1","CDH1-null / parental viability ratio":1.26,"CDH1-null viability vs mock":0.88}
{"target":"NPHS1","CDH1-null / parental viability ratio":1.06,"CDH1-null viability vs mock":0.83}
{"target":"DUSP16","CDH1-null / parental viability ratio":1.16,"CDH1-null viability vs mock":0.87}
{"target":"OR2Z1","CDH1-null / parental viability ratio":1.31,"CDH1-null viability vs mock":0.55}
{"target":"IFNA8","CDH1-null / parental viability ratio":0.85,"CDH1-null viability vs mock":0.53}
{"target":"CYP2C19","CDH1-null / parental viability ratio":0.88,"CDH1-null viability vs mock":0.78}
{"target":"GIGYF2","CDH1-null / parental viability ratio":0.76,"CDH1-null viability vs mock":0.64}

The list goes on, starting with the last 4 of the part before.
{"target":"OR2Z1","CDH1-null / parental viability ratio":1.31,"CDH1-null viability vs mock":0.55}
{"target":"IFNA8","CDH1-null / parental viability ratio":0.85,"CDH1-null viability vs mock":0.53}
{"target":"CYP2C19","CDH1-null / parental viability ratio":0.88,"CDH1-null viability vs mock":0.78}
{"target":"GIGYF2","CDH1-null / parental viability ratio":0.76,"CDH1-null viability vs mock":0.64}
{"target":"IL17RC","CDH1-null / parental viability ratio":0.95,"CDH1-null viability vs mock":0.95}
{"target":"OR1F1","CDH1-null / parental viability ratio":0.97,"CDH1-null viability vs mock":0.58}
{"target":"CFAP418","CDH1-null / parental viability ratio":1.14,"CDH1-null viability vs mock":1.14}
{"target":"CCDC134","CDH1-null / parental viability ratio":0.72,"CDH1-null viability vs mock":0.42}
{"target":"SIRT3","CDH1-null / parental viability ratio":1,"CDH1-null viability vs mock":0.55}
{"target":"TBC1D20","CDH1-null / parental viability ratio":0.96,"CDH1-null viability vs mock":0.75}
{"target":"RASGEF1B","CDH1-null / parental viability ratio":1.24,"CDH1-null viability vs mock":0.94}
{"target":"NTRK3","CDH1-null / parental viability ratio":0.97,"CDH1-null viability vs mock":0.9}
{"target":"ZNF302","CDH1-null / parental viability ratio":1.33,"CDH1-null viability vs mock":0.69}
{"target":"OR13C8","CDH1-null / parental viability ratio":1.16,"CDH1-null viability vs mock":0.67}
{"target":"USP5","CDH1-null / parental viability ratio":1.17,"CDH1-null viability vs mock":0.84}
{"target":"EGR1","CDH1-null / parental viability ratio":1.09,"CDH1-null viability vs mock":1.02}
{"target":"KLF1","CDH1-null / parental viability ratio":0.94,"CDH1-null viability vs mock":0.58}
{"target":"GALNT1","CDH1-null / parental viability ratio":1.07,"CDH1-null viability vs mock":0.9}
{"target":"RELL1","CDH1-null / parental viability ratio":1.05,"CDH1-null viability vs mock":0.82}
{"target":"KRTAP6-3","CDH1-null / parental viability ratio":0.82,"CDH1-null viability vs mock":0.74}
{"target":"PATJ","CDH1-null / parental viability ratio":1.01,"CDH1-null viability vs mock":0.91}
{"target":"TRIM60","CDH1-null / parental viability ratio":0.96,"CDH1-null viability vs mock":0.98}
{"target":"NPAS3","CDH1-null / parental viability ratio":1.63,"CDH1-null viability vs mock":0.62}
{"target":"BTBD9","CDH1-null / parental viability ratio":0.99,"CDH1-null viability vs mock":0.73}
{"target":"NKX6-1","CDH1-null / parental viability ratio":1.02,"CDH1-null viability vs mock":0.94}
{"target":"RRAD","CDH1-null / parental viability ratio":0.89,"CDH1-null viability vs mock":0.4}
{"target":"NIPA1","CDH1-null / parental viability ratio":1.05,"CDH1-null viability vs mock":0.85}
{"target":"STRAP","CDH1-null / parental viability ratio":0.74,"CDH1-null viability vs mock":0.55}
